Source: PubChem BioAssay AID540303 (National Center for Advancing Translational Sciences (NCATS), 2011)
Out of some 330,000 compounds screened, about 1,000 (0.3%) were called active. Inconclusive results, whose numbers are uncertain, are shown with a selection of clear calls. Calls come from the whole dose curve; as a rule, active = well fitted inhibition curve with a large enough effect; inconclusive = small, poorly fitted or top-dose-only effect; inactive = no such curve, though single readings can be large or run the other way; tested in mouse RAW 264.7 cells. Where the call is inconclusive, the potency comes from a doubtful curve fit.

Assay: qHTS for Inhibitors of Cell Surface uPA Generation; note: nearly all actives have a fitted effect of over 55% in size
Details: cell surface uPA generation assay; series mostly up to 38.3 µM
How it was run: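 Intracellular ATP by ATPlite luminescence serves as read-out: inhibited cell-surface uPA generation prevents LF translocation, preserving ATP. Murine RAW 264.7 macrophages were treated 24 h at 37 C with five-fold serial dilutions, up to 38.3 uM final.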
Potency is the fitted concentration of half-maximal effect.

| Compound | Potency |
| --- | --- |
| O=C(NC1CCCCCCC1)c1cc([N+](=O)[O-])ccc1Cl | inconclusive: 8.91 µM [inhibitor, single point] |
| COCc1cc(C)nc2sc(C(=O)Nc3ccccc3OC)c(N)c12 | inactive |
| Cc1ccc(-c2cnn(-c3ccccc3)c2N)cc1 | inconclusive: 11.2 µM [inhibitor, single point] |
| O=C(/C=C/c1cccc(C(F)(F)F)c1)Nc1cccc(C(F)(F)F)c1 | inconclusive: 12.6 µM [inhibitor, single point] |
| CCOC(=O)c1c(-c2ccc(C)o2)csc1NC(=O)CSc1nncs1 | inconclusive: 3.16 µM [inhibitor, partial curve, poor fit] |
| CSC1=N/C(=C\c2ccc(C)o2)C(=O)S1 | inactive |
| COc1ccc(C2CC(C)(c3ccc(OC)cc3OC)Nc3ccccc3N2)c(OC)c1 (stereo not given) | inactive |
| c1ccc(CCNc2ncnc3ccccc23)cc1 | inconclusive: 2.82 µM [inhibitor, full curve] |
| Cn1nnnc1Sc1ncnc2scc(-c3cccc(F)c3)c12 | inconclusive: 7.08 µM [inhibitor, partial curve, poor fit] |
| N#Cc1c(Cl)nsc1NC(=O)c1ccccc1 | inconclusive: 12.6 µM [inhibitor, partial curve, poor fit] |
| Cc1n[nH]c(C)c1CCCCOc1ccccc1F | inactive |
| CCCCN(CC)S(=O)(=O)c1ccc2c(c1)n(C)c(=O)c(=O)n2C | inconclusive: 2.82 µM [inhibitor, single point] |
| C/C(=N/NC(=O)CNC(=O)CCc1ccccc1)c1ccc(Cl)cc1 | inactive |
| CCN(CC)CCCCNc1ncc2cc(-c3cc(OC)cc(OC)c3)c(NC(=O)NC(C)(C)C)nc2n1 | active: 7.08 µM |
| CC(=O)C12OC1CC1C3CCC4=CC(=O)CCC4(C)C3CCC12C (stereo not given) | inconclusive: 0.0141 µM [inhibitor, full curve, poor fit] |
| Cc1c2ccccc2c(C)c2c1ccc1ccccc12 | inconclusive: 11.2 µM [inhibitor, single point] |
| O=C(O)c1ccc(S(=O)(=O)c2ccc(Sc3ccc(C(=O)O)c(C(=O)O)c3)cc2)cc1 | inactive |
| Cc1ccccc1-c1cccc([C@@H]2C[C@H]3[C@H](CON3C)CN2Cc2ccccc2)c1 | inactive |
| O=C(CSc1nnc2ccccn12)Nc1nsc(-c2ccccc2)n1 | inactive |
| COc1ccc(-c2cc(C(F)(F)F)n3ncc(C(=O)NCC4CCCO4)c3n2)cc1 (stereo not given) | inactive |
| COc1ccc(Cl)cc1NC(=O)CSc1cccc[n+]1[O-] | inconclusive: 1.12 µM [inhibitor, partial curve, poor fit] |
| N=c1n(Cc2ccccc2)c2ccccc2n1CC(O)COc1ccc(Cl)cc1Cl (stereo not given) | inactive |
| CCOc1ccccc1OCCCC(=O)N1CCN(S(=O)(=O)c2ccc(Cl)cc2)CC1 | inconclusive: 1.26 µM [inhibitor, full curve, poor fit] |
| Cc1cccc(C(=O)Nc2nnc(C3=COCCO3)o2)c1 | inactive |

| Compound | Potency |
| --- | --- |
| O=C(OCc1nc2ccc(Cl)cc2n1CCO)c1ccccc1 | inactive |
| CN(CC(=O)NC(=O)NCc1ccccc1)CC(=O)Nc1ccc(Cl)c(C(F)(F)F)c1 | inactive |
| CC1(C)CC(=O)C2=C(C1)OC1=C(C(=O)CC(C)(C)C1)C2c1cc([N+](=O)[O-])cc([N+](=O)[O-])c1O | inactive |
| CCN(C(=O)CN1C(=O)NC(CCSC)C1=O)C1CCS(=O)(=O)C1 (stereo not given) | inconclusive: 1.58 µM [inhibitor, single point] |
| CC1CC(C)CN(S(=O)(=O)c2ccc(NC(=O)c3ccc(=O)[nH]c3)cc2)C1 (stereo not given) | inconclusive: 5.01 µM [inhibitor, partial curve, poor fit] |
| Cc1nc(N2CCC(C)CC2)c2c(C)c(C(=O)Nc3ccc4c(c3)OCCO4)sc2n1 | inconclusive: 10 µM [inhibitor, single point] |
| Cc1ccc(C)c(NC(=S)NCc2ccc3[nH]c4c(c3c2)CCCC4)c1 | inconclusive: 12.6 µM [inhibitor, single point] |
| COC(=O)[C@H](Cc1ccccc1)NC(=O)Cn1cnc(C(=O)Nc2ccc(C)c(C)c2)n1 | inactive |
| C1=C(c2ccccc2)CCN(c2ncnc3nc[nH]c23)C1 | inconclusive: 2.51 µM [inhibitor, full curve, poor fit] |
| O=C(CN1C(=O)/C(=C\c2ccco2)SC1=S)Nc1ccc(O)cc1C(=O)O | inactive |
| Cc1cc(NC(=O)C2CCCN(S(=O)(=O)c3c(C)noc3C)C2)no1 (stereo not given) | inconclusive: 7.08 µM [inhibitor, partial curve, poor fit] |
| Cc1cc(C(=O)COC(=O)c2ccccc2NCCO)c(C)n1CC1CCCO1 (stereo not given) | inconclusive: 6.31 µM [inhibitor, single point] |
| C=COCCCNc1ncnc2sc(-c3ccccc3)cc12 | inconclusive: 5.62 µM [inhibitor, partial curve, poor fit] |
| COc1ccc(CCNC(=O)CCc2ccsc2)cc1OC | inactive |
| O=C(O)c1cccc(N/N=C(\N=Nc2ccccc2)c2ccccc2)c1 | inconclusive: 8.91 µM [inhibitor, partial curve] |
| COC(=O)[C@@H]1Cc2c([nH]c3ccccc23)C(C)N1C(=O)c1ccccc1 (stereo not given in full) | inconclusive: 28.2 µM [inhibitor, single point] |
| COC(=O)c1cc(=O)n(-c2ccccc2)c(=Nc2ccccc2)s1 | active: 4.47 µM |
| Cc1ccc(C(=O)OC(C)C(=O)NCc2ccc3c(c2)OCO3)cc1S(=O)(=O)N1CCOCC1 (stereo not given) | inconclusive: 5.01 µM [inhibitor, partial curve, poor fit] |
| CC1(C)CC(NC(=O)c2ccccn2)CC(C)(C)N1O | inactive |
| CN(c1ccccc1)S(=O)(=O)c1ccc(C(=O)Nc2ncccc2O)cc1 | inconclusive: 28.2 µM [inhibitor, single point] |
| CCc1ccc(NC(=O)[C@H](NC(=O)[C@@H]2Cc3ccccc3CN2)c2ccccc2)cc1 | inactive |
| O=C(COC(=O)c1cc(-c2cccs2)nc2ccccc12)NC1CCS(=O)(=O)C1 (stereo not given) | inconclusive: 11.2 µM [inhibitor, single point] |
| C[C@@H]1CN([C@@H](C)CO)C(=O)Cc2cc(NC(=O)Nc3ccc(F)cc3)ccc2O[C@@H]1CN(C)Cc1ccc(Cl)c(Cl)c1 | inconclusive: 12.6 µM [inhibitor, single point] |
| Cc1ccc(NC(=S)N(C)C(c2ccccc2)c2ccccc2)cc1C | inconclusive: 28.2 µM [inhibitor, single point] |

| Compound | Potency |
| --- | --- |
| O=C1C2CCc3ccccc3C2N1c1ccccc1 (stereo not given) | inconclusive: 11.2 µM [inhibitor, single point] |
| COc1cccc(/C=C2/SC(=S)N(CC(=O)NC3C=CS(=O)(=O)C3)C2=O)c1 (stereo not given) | inconclusive: 31.6 µM [inhibitor, partial curve, poor fit] |
| NC(=O)c1ccc(NC(=O)COC(=O)c2ccc(Br)c(S(=O)(=O)N3CCOCC3)c2)cc1 | inactive |
| COc1ccc(S(=O)(=O)NCCCCOc2ccc(Cl)cc2)cc1 | inconclusive: 12.6 µM [inhibitor, single point] |
| Cc1ccc(S(=O)(=O)N2CCC(C(N)=O)CC2)cc1C(=O)NC1CCCCC1 | inactive |
| Cc1cc(C)n(CC(=O)N/N=C/c2cc(Br)cc([N+](=O)[O-])c2O)n1 | inconclusive: 12.6 µM [inhibitor, single point] |
| COC(=O)c1cc(=O)n(Cc2ccc(F)cc2)c(=Nc2ccccc2)s1 | active: 7.08 µM |
| O=C(CSc1ncnc2ccccc12)N1CCNC1=O | inconclusive: 10 µM [inhibitor, single point] |
| COc1ccccc1N1CCN(C(=O)c2ccc(-c3ccc(Cl)cc3)o2)CC1 | inconclusive: 3.16 µM [inhibitor, partial curve, poor fit] |
| CC(C)(C)C(=O)Nc1ccc(Sc2ccc([N+](=O)[O-])cc2)cc1 | inconclusive: 28.2 µM [inhibitor, single point] |
| Cc1ccc(NC(=O)C2CCC(CNC(=O)[C@@H]3Cc4ccccc4CN3)CC2)cc1 (stereo not given in full) | inconclusive: 12.6 µM [inhibitor, single point] |
| CCN(CC)CCSc1nnc2c3ccccc3n(Cc3ccccc3)c2n1 | inconclusive: 7.94 µM [inhibitor, single point] |
| C=CCNC(=S)N1CCN(c2ccccc2Cl)CC1 | inconclusive: 5.62 µM [inhibitor, single point] |
| COc1ccc(SC[C@H](Cc2ccccc2)N2CCN(CCc3ccccc3)CCC2=O)cc1 | inconclusive: 12.6 µM [inhibitor, single point] |
| Cc1cccc(NC(=O)CSc2nc3ccccc3c3nc(CCc4c(C)n[nH]c4C)nn23)c1 | inactive |
| COc1ccccc1-c1cc(C(=O)NCCc2ccccc2)no1 | inactive |
| O=C(O)/C=C/C(=O)Nc1c(F)cccc1F | inactive |
| COc1cccc(CNC23CC4CC(CC(C4)C2)C3)c1OCc1ccccc1 | inconclusive: 11.2 µM [inhibitor, partial curve, poor fit] |
| O=C(c1c[nH]c(C(=O)N2CCN(c3ccccc3F)CC2)c1)c1cccc(Cl)c1Cl | inconclusive: 5.62 µM [inhibitor, partial curve, poor fit] |
| O=C(c1ccc2c(c1)OCO2)C1CCCN(Cc2ccc3cccc(F)c3n2)C1 (stereo not given) | inactive |
| O=C(O)CCC(=O)Nc1sc2c(c1C(=O)NC1CCCC1)CCCC2 | inactive |
| COc1ccc(CN2CCC(n3nccc3NC(=O)CCCc3ccccc3)CC2)cc1C | inconclusive: 17.8 µM [inhibitor, partial curve, poor fit] |

In the list so far, these contain a nitro group on carbon.

| Compound | Potency |
| --- | --- |
| O=C(NC1CCCCCCC1)c1cc([N+](=O)[O-])ccc1Cl | inconclusive: 8.91 µM [inhibitor, single point] |
| CC1(C)CC(=O)C2=C(C1)OC1=C(C(=O)CC(C)(C)C1)C2c1cc([N+](=O)[O-])cc([N+](=O)[O-])c1O | inactive |
| Cc1cc(C)n(CC(=O)N/N=C/c2cc(Br)cc([N+](=O)[O-])c2O)n1 | inconclusive: 12.6 µM [inhibitor, single point] |
| CC(C)(C)C(=O)Nc1ccc(Sc2ccc([N+](=O)[O-])cc2)cc1 | inconclusive: 28.2 µM [inhibitor, single point] |
